Test results reported in publication doi:10.1101/2020.12.22.423950.
These are yes or no findings as the source states them, for the method shown. Binding seen in cells or lysates may run through a third protein. Some results given as binding are weak or reduced against the parent protein; the word gives no strength. Where a sequence is shown, tags or fusion partners need not be part of it.

Target: T1, Flag- and HA-tagged Sting (F/HA-Sting), Stimulator of interferon genes (UniProt Q3TBT3)
T1 sequence: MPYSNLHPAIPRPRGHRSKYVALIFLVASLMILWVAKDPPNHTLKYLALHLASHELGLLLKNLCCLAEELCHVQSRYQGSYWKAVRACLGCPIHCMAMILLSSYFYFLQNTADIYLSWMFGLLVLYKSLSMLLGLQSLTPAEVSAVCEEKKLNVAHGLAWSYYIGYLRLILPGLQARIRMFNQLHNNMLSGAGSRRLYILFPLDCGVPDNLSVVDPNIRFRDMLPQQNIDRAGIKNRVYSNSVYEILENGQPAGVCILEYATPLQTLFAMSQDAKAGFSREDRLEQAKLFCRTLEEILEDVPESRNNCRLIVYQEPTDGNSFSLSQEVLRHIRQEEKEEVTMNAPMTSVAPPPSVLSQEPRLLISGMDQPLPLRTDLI
Assay: co-IP

binding: binds
B1: Fatty acid desaturase 2 (Fads2), endogenous in MEF (enzyme, UniProt Q9Z0R9 1-444)
chain: MGKGGNQGEGSTERQAPMPTFRWEEIQKHNLRTDRWLVIDRKVYNVTKWSQRHPGGHRVIGHYSGEDATDAFRAFHLDLDFVGKFLKPLLIGELAPEEPSLDRGKSSQITEDFRALKKTAEDMNLFKTNHLFFFLLLSHIIVMESLAWFILSYFGTGWIPTLVTAFVLATSQAQAGWLQHDYGHLSVYKKSIWNHVVHKFVIGHLKGASANWWNHRHFQHHAKPNIFHKDPDIKSLHVFVLGEWQPLEYGKKKLKYLPYNHQHEYFFLIGPPLLIPMYFQYQIIMTMISRRDWVDLAWAISYYMRFFYTYIPFYGILGALVFLNFIRFLESHWFVWVTQMNHLVMEIDLDHYRDWFSSQLAATCNVEQSFFNDWFSGHLNFQIEHHLFPTMPRHNLHKIAPLVKSLCAKHGIEYQEKPLLRALIDIVSSLKKSGELWLDAYLHK
